Experimental data taken from paper PMC3674269.
These are yes or no findings as the source states them, for the method shown. In cells and extracts the contact can be indirect. A result given as binding can be weak or reduced; the word gives no strength.

Amino acid sequences for entries named in this document (tags omitted). A change or cut given only in a name is not applied to a line headed by its entry.
UniProt P22002: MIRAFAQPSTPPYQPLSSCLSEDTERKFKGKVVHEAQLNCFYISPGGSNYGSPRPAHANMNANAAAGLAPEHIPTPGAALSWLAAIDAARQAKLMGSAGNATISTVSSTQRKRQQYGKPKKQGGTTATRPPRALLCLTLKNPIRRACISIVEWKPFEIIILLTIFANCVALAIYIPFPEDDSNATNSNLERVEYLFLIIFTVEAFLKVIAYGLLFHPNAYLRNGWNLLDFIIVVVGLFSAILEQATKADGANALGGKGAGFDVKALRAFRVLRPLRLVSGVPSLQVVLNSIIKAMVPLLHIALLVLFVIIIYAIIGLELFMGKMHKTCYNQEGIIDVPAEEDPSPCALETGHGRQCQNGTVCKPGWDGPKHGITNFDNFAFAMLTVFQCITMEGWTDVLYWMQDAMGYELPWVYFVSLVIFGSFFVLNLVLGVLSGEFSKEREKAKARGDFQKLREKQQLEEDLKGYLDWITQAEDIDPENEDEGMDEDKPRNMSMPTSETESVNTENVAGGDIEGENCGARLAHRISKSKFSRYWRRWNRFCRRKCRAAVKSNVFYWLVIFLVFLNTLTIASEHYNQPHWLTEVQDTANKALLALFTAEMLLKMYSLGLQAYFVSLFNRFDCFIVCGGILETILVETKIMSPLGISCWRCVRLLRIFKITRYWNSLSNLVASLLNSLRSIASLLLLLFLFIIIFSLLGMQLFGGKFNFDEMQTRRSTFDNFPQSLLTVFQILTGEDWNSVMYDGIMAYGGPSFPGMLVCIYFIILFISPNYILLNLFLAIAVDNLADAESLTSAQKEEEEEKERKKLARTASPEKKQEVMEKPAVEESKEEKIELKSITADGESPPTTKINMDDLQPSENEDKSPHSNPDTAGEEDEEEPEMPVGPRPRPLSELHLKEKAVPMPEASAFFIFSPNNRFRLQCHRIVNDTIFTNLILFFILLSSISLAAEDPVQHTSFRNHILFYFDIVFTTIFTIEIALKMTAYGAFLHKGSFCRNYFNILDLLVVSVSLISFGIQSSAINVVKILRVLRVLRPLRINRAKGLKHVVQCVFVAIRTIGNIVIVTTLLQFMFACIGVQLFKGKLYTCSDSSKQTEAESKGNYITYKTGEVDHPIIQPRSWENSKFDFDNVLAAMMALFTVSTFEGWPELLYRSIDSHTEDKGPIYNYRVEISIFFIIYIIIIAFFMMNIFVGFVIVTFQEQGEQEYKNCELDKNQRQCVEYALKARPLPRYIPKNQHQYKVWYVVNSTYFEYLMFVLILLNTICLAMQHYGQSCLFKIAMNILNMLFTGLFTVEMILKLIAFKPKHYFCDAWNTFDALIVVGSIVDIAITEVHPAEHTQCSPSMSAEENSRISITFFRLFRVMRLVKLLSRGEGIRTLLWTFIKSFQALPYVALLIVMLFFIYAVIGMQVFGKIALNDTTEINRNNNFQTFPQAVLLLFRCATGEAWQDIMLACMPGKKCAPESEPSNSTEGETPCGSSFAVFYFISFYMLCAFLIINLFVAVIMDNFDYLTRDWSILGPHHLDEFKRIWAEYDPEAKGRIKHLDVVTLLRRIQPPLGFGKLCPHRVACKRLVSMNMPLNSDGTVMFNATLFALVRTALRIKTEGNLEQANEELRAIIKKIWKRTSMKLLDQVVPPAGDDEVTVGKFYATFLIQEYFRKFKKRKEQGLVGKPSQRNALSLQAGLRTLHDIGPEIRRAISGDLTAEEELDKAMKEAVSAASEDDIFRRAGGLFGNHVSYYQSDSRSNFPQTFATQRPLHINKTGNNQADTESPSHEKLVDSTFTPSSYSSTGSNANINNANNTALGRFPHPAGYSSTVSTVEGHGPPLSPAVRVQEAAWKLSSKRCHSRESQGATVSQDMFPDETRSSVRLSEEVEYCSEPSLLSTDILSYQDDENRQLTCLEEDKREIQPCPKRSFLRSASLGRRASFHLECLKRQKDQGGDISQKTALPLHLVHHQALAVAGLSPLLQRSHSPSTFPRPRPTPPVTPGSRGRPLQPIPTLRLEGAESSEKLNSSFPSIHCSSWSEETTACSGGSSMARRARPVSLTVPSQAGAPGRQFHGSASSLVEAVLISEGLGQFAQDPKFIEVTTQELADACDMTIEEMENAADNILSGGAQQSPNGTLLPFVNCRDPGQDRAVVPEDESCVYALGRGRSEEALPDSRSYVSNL
UniProt F1NZP5: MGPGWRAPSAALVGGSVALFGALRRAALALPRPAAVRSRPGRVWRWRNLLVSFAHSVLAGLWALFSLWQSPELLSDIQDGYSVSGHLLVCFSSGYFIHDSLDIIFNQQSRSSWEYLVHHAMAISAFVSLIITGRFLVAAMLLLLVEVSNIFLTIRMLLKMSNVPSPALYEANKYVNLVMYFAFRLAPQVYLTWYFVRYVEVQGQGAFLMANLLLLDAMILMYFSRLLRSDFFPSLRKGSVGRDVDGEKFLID

Target: L-type calcium channel CaV1.2 α1 subunit (UniProt P22002)
Assay: co-IP; HEK293 cells transfected with CaV1.2 α1, β2a-GFP, α2δ subunits, TAG and C3-myc; lysed in Hepes lysis buffer (20 mM Hepes, 137 mM NaCl, 1% Triton X-100, 10% glycerol, 1.5 mM MgCl2, 1 mM EGTA); precipitated with anti-CaV1.2 and protein A beads for 3 h, detected with anti-myc; pcDNA3 as control

In the case of Calfacilitin-myc1 (from UniProt F1NZP5), the binding is reported as “binds”.
For Calfacilitin-myc7 (from UniProt F1NZP5), the binding was “binds”.
